These are yes or no findings as the source states them, for the method shown. Some entries that bind do so weakly or less than the wild type. Tags and fused reporters may be left off the sequences shown.
Molecular target: K560-GFP with C-terminal Strep-tag, purified (human) (UniProt P33176)
Assay: single-molecule TIRF reconstitution (cotransport on microtubules); dual-color imaging of K560-GFP and labeled MAP on dynamic MTs grown from GMPCPP seeds; MRB80 with 50 mM KCl, 2 mM ATP, 30°C; both purified

Protein sequences, listed by entry. Tags and fused reporters are not part of them. Residues count along the entry.
UniProt P33176, residues 1-560: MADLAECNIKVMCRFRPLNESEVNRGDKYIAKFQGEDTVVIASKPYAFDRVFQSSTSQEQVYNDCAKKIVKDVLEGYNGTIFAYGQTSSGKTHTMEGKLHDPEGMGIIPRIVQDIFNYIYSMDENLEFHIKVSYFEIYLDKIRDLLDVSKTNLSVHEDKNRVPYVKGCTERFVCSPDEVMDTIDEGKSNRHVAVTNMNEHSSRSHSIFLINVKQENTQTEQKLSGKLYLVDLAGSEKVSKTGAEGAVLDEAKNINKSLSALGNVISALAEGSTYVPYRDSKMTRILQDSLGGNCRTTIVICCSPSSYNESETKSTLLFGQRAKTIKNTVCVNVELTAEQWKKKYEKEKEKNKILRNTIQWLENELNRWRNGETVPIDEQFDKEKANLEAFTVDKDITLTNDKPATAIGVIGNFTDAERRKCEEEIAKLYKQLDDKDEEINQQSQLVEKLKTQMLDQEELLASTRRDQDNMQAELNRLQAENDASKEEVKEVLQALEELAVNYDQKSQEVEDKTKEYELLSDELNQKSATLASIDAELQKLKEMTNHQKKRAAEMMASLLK

B1: Alexa Fluor 647–labeled SNAP-tag-MAP7D3, full length (protein, UniProt Q8IWC1 1-876)
chain: MMADGAAAGAGGSPSLRELRARMVAAANEIAKERRKQDVVNRVATHSSNIRSTFKPVIDGSMLKNDIKQRLARERREEKRRQQDANKETQLLEKERKTKLQYEKQMEERQRKLKERKEKEEQRRIAAEEKRHQKDEAQKEKFTAILYRTLERRRLADDYQQKRWSWGGSAMANSESKTANKRSASTEKLEQGTSALIRQMPLSSAGLQNSVAKRKTDKERSSSLNRRDSNLHSSTDKEQAERKPRVTGVTNYVMQYVTVPLRKCTSDELRAVMFPMSTMKIPPQTKVEESPLEKVETPPKASVDAPPQVNVEVFCNTSMEASPKAGVGMAPEVSTDSFPVVSVDVSPVVSTYDSEMSMDASPELSIEALPKVDLETVPKVSIVASPEASLEAPPEVSLEALPEVSVEAAPEGSLEAPPKGSAEVAPKESVKGSPKESMEASPEAMVKASPKTSLEASMEASPKAKARDAPKKSEMDKQALIPIAKKRLSSYTECYKWSSSPENACGLPSPISTNRQIQKNCPPSPLPLISKQSPQTSFPYKIMPIQHTLSVQSASSTVKKKKETVSKTTNRCEALSQRHMIYEESGNKSTAGIMNAEAATKILTELRRLAREQREKEEEERQREEMQQRVIKKSKDMAKEAVGGQAEDHLKLKDGQQQNETKKKKGWLDQEDQEAPLQKGDAKIKAQEEADKRKKEHERIMLQNLQERLERKKRIEEIMKRTRKTDVNASKVTETSSHDIYEEAEADNEESDKDSLNEMFPSAILNGTGSPTKFKMPFNNAKKMTHKLVFLEDGTSQVRKEPKTYFNGDLKNFRQKSMKDTSIQEVVSRPSSKRMTSHTTKTRKADETNTTSRSSAQTKSEGFHDILPKSSDTFRQ
modifications: Alexa Fluor 647 on the SNAP-tag
binding: binds
